Reference: PMC4980808
Results are given in words; binding and its absence hold for the method and conditions named. In cells and extracts the contact can be indirect. Here binding means that the protein was enriched with, or labelled near, the bait; the list need not be complete.

Biological target: T1, ZIP6, mouse (bait of the affinity capture) (mouse (endogenous in NMuMG)) (UniProt Q8C145)
T1 sequence: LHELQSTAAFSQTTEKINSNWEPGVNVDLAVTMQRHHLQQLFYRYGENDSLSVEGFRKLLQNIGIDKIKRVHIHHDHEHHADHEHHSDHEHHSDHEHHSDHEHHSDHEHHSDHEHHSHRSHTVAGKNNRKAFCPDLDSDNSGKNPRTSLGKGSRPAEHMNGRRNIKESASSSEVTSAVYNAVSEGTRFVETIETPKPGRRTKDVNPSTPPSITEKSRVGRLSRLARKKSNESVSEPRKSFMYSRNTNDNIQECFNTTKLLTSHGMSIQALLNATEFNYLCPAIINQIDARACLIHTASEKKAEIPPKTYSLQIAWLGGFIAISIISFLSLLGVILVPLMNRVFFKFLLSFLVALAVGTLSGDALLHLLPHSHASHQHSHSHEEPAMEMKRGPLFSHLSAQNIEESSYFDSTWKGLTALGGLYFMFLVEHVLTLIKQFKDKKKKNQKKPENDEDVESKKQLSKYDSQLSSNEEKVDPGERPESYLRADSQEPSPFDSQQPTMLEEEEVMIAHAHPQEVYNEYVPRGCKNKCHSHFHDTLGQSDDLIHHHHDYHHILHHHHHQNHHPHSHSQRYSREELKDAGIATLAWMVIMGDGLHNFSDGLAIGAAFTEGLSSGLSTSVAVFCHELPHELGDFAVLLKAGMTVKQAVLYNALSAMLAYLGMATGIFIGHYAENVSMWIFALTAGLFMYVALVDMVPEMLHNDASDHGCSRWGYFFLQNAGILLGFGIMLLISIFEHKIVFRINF
Test: affinity purification with mass spectrometry; wild-type or ZIP6 knockout NMuMG cells cross-linked in vivo with 1% formaldehyde, lysed in 1% NP-40 buffer; capture on anti-ZIP6 antibodies on Protein A agarose; six-plex TMT quantification

B1: ZIP10, mouse (protein, UniProt Q6P5F6 26-833)
chain: HEDHDHGPEELHRHHRGMTESESSKFSVQDAENEKKYYIEKLFDRYGENGRLSFFGLEKLLTNLGLGEIKVVEINHEDLGHDHVSHLDILAVQEGKHFHSHTHQHFHNHLNAENHTTTSVTSKRNHKCDPEKEAAELPIKADDKHLHDRNHRFHHRHRLHHHLDHNTTRHVHNDSVAHSEHGEPGHSPSPETNKTQEQSEVKSVKVRRKEKGKRKKENSEVNTPGFLPNHDHSEQYEHNRVHKLDRVHSPGHPHAHLPEHSGHELGHGHQELDPDNEGELRHTRKREAPHVRKSAIYSTPSHKDQSEDDRQHECLNVTQLLKHFGLGPNSPISPDLFTYLCPALLYQIDSRLCIEHFDKLLVEDLNKDKTLVPEDKTNIGASAWICGIISITVISLLSLLGVILVPIINQGCFKFLLTFLVALAVGTMSGDALLHLLPHSQGGHDHSHQHTHGHGHSHGHESKEFLEEYDAVLKGLVALGGIYLLFIIEHCIRMFKHYKQQRGKQKWFMKQSTEESTIGRKLSDHKLNSTPDADWLQLKPLAGTDDSVVSEDRLNETELTDLEAQQESPPKNYLGVEEEKIMDHSHSDGLHTIHEHEVHVTSHNHHDEDKAVLRKHSHQWHHRHAHHSHGPCHSGSDLKETGIANIAWMVIMGDGIHNFSDGLAIGAAFSAGLTGGISTSIAVFCHELPHELGDFAVLLKAGMTVKQAIVYNLLSAMMAYIGMLIGTAVGQYANNITLWIFAITAGMFLYVALVDMLPEMLHGDGDHEEHGFCPVGQFILQNLGLLFGFAIMLVIALYEDKIVFDIQF
binding: binds
